In article doi:10.1101/2022.02.08.479597:
No constants are given. Whether binding was seen depends on the method and setting. In cells and extracts the contact can be indirect. Some entries that bind do so weakly or less than the wild type.

Sequences of proteins named here, by UniProt entry; tags and fusion partners are left off.
UniProt Q9HC29: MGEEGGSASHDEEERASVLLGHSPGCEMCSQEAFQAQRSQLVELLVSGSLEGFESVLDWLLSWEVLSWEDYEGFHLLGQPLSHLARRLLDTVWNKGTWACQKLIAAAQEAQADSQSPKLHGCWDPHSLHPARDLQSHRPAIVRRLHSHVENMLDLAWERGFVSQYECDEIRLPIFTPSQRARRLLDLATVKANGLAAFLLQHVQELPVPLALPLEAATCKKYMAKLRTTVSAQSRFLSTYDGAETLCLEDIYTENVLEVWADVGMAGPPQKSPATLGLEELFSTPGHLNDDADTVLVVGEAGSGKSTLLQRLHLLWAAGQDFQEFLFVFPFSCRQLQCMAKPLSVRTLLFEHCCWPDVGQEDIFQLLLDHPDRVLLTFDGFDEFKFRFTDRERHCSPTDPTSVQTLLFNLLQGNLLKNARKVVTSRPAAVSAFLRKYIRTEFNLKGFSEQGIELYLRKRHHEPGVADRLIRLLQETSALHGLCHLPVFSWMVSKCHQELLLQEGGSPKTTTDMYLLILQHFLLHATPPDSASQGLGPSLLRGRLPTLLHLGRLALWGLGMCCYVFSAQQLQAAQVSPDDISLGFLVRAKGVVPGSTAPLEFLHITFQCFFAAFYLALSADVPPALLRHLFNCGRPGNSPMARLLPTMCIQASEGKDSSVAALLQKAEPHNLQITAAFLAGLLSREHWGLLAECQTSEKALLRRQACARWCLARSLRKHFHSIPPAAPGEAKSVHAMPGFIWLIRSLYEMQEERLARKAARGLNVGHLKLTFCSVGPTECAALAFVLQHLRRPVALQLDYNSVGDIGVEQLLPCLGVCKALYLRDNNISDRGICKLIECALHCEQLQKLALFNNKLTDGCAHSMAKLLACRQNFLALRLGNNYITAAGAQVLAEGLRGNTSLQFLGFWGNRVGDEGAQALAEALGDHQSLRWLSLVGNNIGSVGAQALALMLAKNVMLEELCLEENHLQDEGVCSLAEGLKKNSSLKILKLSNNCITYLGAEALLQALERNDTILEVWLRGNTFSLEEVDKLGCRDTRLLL
UniProt P27708: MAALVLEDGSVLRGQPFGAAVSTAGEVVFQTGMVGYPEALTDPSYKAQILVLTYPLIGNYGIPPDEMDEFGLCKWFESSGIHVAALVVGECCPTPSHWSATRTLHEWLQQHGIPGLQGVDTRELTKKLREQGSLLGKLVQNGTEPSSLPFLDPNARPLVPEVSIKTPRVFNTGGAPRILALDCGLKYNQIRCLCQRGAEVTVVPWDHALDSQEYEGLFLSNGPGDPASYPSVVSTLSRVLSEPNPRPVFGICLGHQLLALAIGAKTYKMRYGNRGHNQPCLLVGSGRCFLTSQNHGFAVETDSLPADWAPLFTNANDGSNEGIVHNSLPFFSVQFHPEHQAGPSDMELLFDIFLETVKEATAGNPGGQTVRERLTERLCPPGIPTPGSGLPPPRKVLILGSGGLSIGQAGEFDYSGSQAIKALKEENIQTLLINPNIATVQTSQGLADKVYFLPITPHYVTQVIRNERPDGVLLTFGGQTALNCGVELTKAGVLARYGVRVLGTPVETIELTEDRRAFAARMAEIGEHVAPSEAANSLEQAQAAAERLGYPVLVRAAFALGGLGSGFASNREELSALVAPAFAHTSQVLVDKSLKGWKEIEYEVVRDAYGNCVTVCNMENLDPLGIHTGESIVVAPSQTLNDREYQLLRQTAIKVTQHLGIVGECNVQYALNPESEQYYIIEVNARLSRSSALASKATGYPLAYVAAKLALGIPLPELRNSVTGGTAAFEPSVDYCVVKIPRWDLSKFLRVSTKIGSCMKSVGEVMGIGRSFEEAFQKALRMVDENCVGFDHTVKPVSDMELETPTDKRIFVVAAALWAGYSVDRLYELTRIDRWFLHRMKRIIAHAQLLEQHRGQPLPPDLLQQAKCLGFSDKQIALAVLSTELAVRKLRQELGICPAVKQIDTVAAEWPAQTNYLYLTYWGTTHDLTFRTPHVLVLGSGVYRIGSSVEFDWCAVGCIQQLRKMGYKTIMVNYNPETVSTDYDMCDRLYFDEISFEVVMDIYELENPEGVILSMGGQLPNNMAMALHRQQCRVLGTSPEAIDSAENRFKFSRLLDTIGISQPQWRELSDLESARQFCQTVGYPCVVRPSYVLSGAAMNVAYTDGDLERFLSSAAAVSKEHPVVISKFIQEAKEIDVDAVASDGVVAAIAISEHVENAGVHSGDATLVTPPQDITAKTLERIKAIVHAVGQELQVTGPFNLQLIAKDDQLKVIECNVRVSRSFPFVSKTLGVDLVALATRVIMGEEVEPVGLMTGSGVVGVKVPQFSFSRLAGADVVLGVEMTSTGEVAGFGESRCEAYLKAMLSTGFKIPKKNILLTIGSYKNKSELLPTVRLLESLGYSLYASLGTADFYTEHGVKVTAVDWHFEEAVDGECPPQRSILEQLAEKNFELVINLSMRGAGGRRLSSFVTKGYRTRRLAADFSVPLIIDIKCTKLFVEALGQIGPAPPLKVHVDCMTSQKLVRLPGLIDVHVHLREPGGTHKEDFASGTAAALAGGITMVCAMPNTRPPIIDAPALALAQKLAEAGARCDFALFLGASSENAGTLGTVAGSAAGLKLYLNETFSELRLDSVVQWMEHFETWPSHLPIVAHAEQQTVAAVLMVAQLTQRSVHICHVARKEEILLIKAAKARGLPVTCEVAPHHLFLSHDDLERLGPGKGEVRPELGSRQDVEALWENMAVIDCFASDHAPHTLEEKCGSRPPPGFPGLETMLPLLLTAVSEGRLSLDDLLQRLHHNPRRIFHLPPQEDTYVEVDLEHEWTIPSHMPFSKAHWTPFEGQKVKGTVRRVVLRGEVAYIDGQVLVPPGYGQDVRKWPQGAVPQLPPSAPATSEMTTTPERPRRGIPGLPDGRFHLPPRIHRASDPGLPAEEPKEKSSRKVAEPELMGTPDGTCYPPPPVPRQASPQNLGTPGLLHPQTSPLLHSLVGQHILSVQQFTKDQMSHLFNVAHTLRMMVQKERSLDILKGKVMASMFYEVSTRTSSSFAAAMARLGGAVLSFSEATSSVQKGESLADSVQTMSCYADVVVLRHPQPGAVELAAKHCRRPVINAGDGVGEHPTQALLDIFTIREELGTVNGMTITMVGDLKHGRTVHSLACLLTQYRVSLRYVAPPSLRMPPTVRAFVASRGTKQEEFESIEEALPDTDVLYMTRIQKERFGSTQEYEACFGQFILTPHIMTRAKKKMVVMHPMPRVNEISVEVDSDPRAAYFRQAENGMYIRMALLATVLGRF

Biological target: nucleotide-binding oligomerization domain 2 (NOD2), HA-tagged (UniProt Q9HC29)
Experiment: co-IP

carbamoyl-phosphate synthetase 2/ aspartate transcarbamylase/ dihydroorotase (CAD), His-FLAG-tagged (from UniProt P27708 1-2225) (enzyme)
binding: binds
